According to PMC10644448:
These are yes or no findings as the source states them, for the method shown. Binding seen in cells or lysates may run through a third protein. Some results given as binding are weak or reduced against the parent protein; the word gives no strength.

Amino acid sequences for entries named in this document (tags omitted). A change or cut given only in a name is not applied to a line headed by its entry. Chains listed by the source or under a name are the forms on record and can include a tag or linker.
UniProt P40692: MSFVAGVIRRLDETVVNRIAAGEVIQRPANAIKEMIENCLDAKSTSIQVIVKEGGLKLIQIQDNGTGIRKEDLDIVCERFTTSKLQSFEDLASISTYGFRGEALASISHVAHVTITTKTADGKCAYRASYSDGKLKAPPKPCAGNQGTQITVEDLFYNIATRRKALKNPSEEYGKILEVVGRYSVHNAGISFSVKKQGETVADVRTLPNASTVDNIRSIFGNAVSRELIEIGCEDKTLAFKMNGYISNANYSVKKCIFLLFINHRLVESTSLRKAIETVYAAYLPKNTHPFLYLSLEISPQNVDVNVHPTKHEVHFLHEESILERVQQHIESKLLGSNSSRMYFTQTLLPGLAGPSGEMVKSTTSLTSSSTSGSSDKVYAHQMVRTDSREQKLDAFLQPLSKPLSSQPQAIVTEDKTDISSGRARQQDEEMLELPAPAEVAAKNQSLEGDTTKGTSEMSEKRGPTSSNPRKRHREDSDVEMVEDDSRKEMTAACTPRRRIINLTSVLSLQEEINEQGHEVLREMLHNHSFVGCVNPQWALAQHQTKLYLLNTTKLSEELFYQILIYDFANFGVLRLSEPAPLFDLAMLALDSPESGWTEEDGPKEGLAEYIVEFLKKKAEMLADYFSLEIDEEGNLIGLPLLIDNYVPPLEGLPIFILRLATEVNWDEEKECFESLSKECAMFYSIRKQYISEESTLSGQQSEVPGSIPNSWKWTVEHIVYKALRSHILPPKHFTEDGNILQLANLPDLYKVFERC
endogenous MBD4 (HeLa nuclear extract) (O95243-2, form named): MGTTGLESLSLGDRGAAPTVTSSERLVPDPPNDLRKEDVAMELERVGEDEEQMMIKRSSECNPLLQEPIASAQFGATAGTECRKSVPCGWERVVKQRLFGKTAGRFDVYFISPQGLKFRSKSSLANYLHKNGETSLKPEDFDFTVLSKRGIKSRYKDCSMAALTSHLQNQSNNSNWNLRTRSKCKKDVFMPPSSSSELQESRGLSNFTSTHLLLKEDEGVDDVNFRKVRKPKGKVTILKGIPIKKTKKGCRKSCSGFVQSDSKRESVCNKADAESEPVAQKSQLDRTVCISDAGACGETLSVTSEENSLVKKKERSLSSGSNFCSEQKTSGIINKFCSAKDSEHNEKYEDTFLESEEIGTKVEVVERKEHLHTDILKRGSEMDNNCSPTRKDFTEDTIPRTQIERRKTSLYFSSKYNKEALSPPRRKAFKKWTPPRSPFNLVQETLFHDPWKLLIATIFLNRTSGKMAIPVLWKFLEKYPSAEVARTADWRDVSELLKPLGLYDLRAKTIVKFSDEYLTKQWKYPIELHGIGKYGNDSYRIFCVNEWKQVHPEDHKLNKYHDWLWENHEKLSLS

Target: endogenous MLH1 (HeLa) (human (endogenous in HeLa)) (UniProt P40692)
Assay: co-IP; immunoprecipitation of endogenous MBD4 or endogenous MLH1 from non-tagged HeLa cell nuclear extracts with specific antibodies; Western blot

binding: binds
Substance: endogenous MBD4 (HeLa nuclear extract) (from UniProt O95243-2 1-574)
